Results are given in words; binding and its absence hold for the method and conditions named. In cells and extracts the contact can be indirect. Some binding calls cover weakened binding; strength is not graded here. For some of these results: Where a sequence is shown, tags or fusion partners need not be part of it.
T1: UNC-9::GFP (C. elegans) (UniProt O01393)
T1 sequence: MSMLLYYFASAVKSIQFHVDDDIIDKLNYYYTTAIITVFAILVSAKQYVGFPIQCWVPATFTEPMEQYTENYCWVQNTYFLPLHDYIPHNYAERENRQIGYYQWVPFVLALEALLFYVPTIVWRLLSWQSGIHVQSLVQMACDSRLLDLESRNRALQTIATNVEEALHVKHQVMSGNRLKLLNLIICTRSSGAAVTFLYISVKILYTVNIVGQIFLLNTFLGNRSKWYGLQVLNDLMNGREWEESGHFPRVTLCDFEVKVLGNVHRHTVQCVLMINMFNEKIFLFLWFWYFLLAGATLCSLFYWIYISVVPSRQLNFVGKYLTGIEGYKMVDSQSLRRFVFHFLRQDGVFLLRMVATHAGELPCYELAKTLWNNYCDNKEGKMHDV

Protein sequences, listed by entry. Tags and fused reporters are not part of them. Residues count along the entry.
UniProt P11021, residues 19-654: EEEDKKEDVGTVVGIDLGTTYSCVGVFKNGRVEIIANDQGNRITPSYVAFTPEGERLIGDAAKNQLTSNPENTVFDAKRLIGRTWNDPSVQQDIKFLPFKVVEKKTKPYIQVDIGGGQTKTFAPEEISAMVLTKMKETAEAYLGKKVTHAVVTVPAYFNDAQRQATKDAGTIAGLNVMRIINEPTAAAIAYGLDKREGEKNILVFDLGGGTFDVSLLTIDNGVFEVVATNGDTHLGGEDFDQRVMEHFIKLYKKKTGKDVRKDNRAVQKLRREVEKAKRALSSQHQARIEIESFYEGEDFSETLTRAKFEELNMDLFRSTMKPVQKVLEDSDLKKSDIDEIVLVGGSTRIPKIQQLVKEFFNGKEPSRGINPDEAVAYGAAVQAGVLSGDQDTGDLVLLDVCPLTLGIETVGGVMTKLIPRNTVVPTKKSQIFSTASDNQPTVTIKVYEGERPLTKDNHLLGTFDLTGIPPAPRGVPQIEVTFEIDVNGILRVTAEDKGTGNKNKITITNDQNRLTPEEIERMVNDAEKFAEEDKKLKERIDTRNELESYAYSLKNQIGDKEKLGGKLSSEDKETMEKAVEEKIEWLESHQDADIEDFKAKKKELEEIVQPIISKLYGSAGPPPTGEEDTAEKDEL
UniProt P20163, residues 18-657: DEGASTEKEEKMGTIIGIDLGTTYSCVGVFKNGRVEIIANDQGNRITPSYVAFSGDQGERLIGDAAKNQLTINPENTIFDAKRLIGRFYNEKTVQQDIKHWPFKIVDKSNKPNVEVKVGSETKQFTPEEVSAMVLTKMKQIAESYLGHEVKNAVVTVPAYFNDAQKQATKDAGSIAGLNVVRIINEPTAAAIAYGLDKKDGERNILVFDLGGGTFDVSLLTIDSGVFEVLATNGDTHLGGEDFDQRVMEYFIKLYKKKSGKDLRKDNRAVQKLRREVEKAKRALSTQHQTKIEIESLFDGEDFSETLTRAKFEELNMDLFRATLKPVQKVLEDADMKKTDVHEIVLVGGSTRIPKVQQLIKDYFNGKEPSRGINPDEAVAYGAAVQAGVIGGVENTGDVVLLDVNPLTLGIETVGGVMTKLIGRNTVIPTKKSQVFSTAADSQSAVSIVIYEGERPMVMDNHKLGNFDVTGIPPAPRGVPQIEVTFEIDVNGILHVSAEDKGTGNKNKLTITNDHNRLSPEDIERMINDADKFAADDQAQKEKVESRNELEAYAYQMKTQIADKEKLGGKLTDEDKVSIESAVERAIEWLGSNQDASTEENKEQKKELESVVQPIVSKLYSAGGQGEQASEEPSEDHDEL
UniProt Q9Y282: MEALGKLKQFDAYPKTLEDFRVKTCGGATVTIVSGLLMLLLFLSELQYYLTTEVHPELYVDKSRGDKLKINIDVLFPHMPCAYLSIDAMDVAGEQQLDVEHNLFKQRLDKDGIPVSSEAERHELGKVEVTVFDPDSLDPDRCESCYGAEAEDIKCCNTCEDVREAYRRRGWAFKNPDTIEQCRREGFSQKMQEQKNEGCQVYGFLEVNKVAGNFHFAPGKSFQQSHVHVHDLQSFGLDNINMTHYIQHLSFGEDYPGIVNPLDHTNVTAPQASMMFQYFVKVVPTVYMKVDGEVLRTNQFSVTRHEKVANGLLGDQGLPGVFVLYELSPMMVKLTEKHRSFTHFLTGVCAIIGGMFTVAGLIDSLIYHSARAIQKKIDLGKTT


Columns and labels:
Assay in all cases: co-IP
UNC-9::GFP (C. elegans) = molecular target: T1, UNC-9::GFP (C. elegans)
human BiP (human) = human BiP (human) (UniProt P11021)
HSP-4::Myc (C. elegans) = HSP-4::Myc (C. elegans) (UniProt P20163)

| binding (human BiP (human)) | Molecule | also measured |
| --- | --- | --- |
| – | HSP-4::Myc (from UniProt P20163 18-657) | binding (UNC-9::GFP (C. elegans)): binds |
| binds | human ERGIC3 (from UniProt Q9Y282 1-383) | – |
| binds | human ERGIC2 (protein, UniProt Q96RQ1 1-377) MRRLNRKKTLSLVKELDAFPKVPESYVETSASGGTVSLIAFTTMALLTIMEFSVYQDTWMKYEYEVDKDFSSKLRINIDITVAMKCQYVGADVLDLAETMVASADGLVYEPTVFDLSPQQKEWQRMLQLIQSRLQEEHSLQDVIFKSAFKSTSTALPPREDDSSQSPNACRIHGHLYVNKVAGNFHITVGKAIPHPRGHAHLAALVNHESYNFSHRIDHLSFGELVPAIINPLDGTEKIAIDHNQMFQYFITVVPTKLHTYKISADTHQFSVTERERIINHAAGSHGVSGIFMKYDLSSLMVTVTEEHMPFWQFFVRLCGIVGGIFSTTGMLHGIGKFIVEIICCRFRLGSYKPVNSVPFEDGHTDNHLPLLENNTH | – |
| – | IRE-1::HA (protein, UniProt Q09499 22-967) ISTPGFRNDHESIGDDEEKTSSTILVSTIDGRLRALDSETGEIKWTLQEEPVLRSPSAVKQGFTFLPNPLDGSLYVLKNSSLKKLPFNIPQLVHASPCKGNDGILYAGSKKDVWFGIDPKTGLKVETLSSASADRICPANQKQTIFLGRTEYRVSMFDEKNRGKTWNATFNDYSAHLLPEVNTWPFKHYASSSHGYILTFDRETGEMRWEQDLKQPVVALYLLRDDGLHKLPFEVMGKETMENVAKNIFTVDQWPTVLGVNAADPQTTSLTNQFFPALFVGESSFGLYAIEALVDHQTITYSPKLLGPPLLEGPAPIALTEMEKEEYLPPRRPIIRNIPPSITHKTSDGEYLLLGYHDRPMMTMATIIPTRYPVPGPHKAIGSTIERPPPQLLGPVEPQKHEDTSFILLLLNNHPIPFYATLVTMFALLLTVIWQCGRQWDQQKSTSRMDSFEIVNNPGESRSAQTSKQSNRGSFGWANRKIEIPEGWMAVGSKLMYSPSDILGTGCEGTVVYRGTFDGREVAVKRVVSEFVKFAHREADLLRESDTHPHVIRYFCMESDSQFRYLALELCIASLNDYVEQKEVQQNVTIALRDIMKQATDGLAHLHASKIVHRDMKPQNVLITMASQRGEMRAVISDFGLCKRVQPGKNSISRGIASGLAGTDGWIAPEVLISASTSYPVDIFSLGCIFYYVLTSGTHPFGKSLHRQANIVNGEYTLNKLADLDDWSLADDLISSMLNVEPLHRLTADAVLNHPFFWTSEKRLAYFSDVSDRVEKEEDNSPVVRRIETDARIVVCGGWREKICDALKEDLRKFRTYKSFSVRDLLRAMRNKKHHYRELPEDVRQSLGDIPDQFLHYFTSRFPRLLLHVYKATEYCSGEAVFKRYYSDDVRARMYPIVEEEERVRKKIKEEMANEVWARAPKPVEQRTPLKLDKRNIKKKSNPNTD | binding (HSP-4::Myc (C. elegans)): binds |
